Measurements as given in patent US20200172549A1, “NOVEL CHLORIN E6-CURCUMIN DERIVATIVES, PREPARATION METHOD THEREOF, AND PHARMACEUTICAL COMPOSITION CONTAINING THE SAME FOR TREATMENT OF CANCER” (DONG SUNG PHARM. CO., LTD., priority 2017, published 2020).
Some results were stated once for a whole list of compounds, not compound by compound. At least one compound was matched to its structure with a doubt left. Some ranges recur; such a range may be that of the whole group of compounds.

Legend:
[1] = Stability study in PBS by UV-Visible spectrophotometer; format: physicochemical; conditions: room temperature, confirmed by LC-MS
[2] = Photophysical properties (absorption) in DMSO; format: physicochemical
Description: The photophysical properties of Ce6-curcumin conjugates and dimethyl ester ce6 were analyzed in dimethyl sulfoxide (DMSO). All the photosensitizers 7, 10, 13, and 16 (Formula IV) effectively absorbed the red light compared to dimethyl ester ce6. The major soret peak at λmax=405-408 nm and Q-bands at 667 nm for the photosensitizers 7, 10, 13, and 16 (Formula IV) and Q band peak at 656 for dimethyl ester ce6.

C=Cc1c(C)c2cc3nc(c(CC(=O)OC)c4[nH]c(cc5nc(cc1[nH]2)C(C)=C5CC)c(C)c4C(=O)NCCCNC(=O)CCCC(=O)Oc1ccc(/C=C/C(=O)CC(=O)/C=C/c2ccc(O)c(OC)c2)cc1OC)C(CCC(=O)OC)C3C (centres unmarked) [Compound 7, Chlorine e6-curcumin Conjugate (7)]
Stability in PBS [1]: up to 60 h | Major soret peak λmax [2]: 405-408 nm
